Measured data: PubChem BioAssay AID1053208 (Peter MacCallum Cancer Centre, 2014)

Aim: 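Genes whose silencing cuts survival of bone tumour cells only with doxorubicin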 (primary screen)
Cells: mouse osteosarcoma cells, early-passage culture from an engineered mouse model of fibroblastic bone tumour
Reagents: siRNA pool against mouse genes, 40 nM
Time to read-out: about 120 h (48 h before drug, then 72 h with drug)
Treatment: doxorubicin 100 nM for 72 h, roughly 30-40% inhibitory dose
Measured: 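Luminescent ATP signal taken as viability with or without 100 nM doxorubicin for 72 h; mean of two wells set against non-targeting siRNA and turned into robust z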
Direction: viability z-score with doxorubicin and doxorubicin viability vs non-targeting: higher = more viable cells under doxorubicin; viability z-score without drug: higher = more viable cells with knock-down alone; z-score of drug to no-drug ratio: higher = less drug sensitisation by knock-down
Rule for the call: 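Called active if knock-down leaves viability unchanged without drug (z within -2 to 2) but lowers it with doxorubicin (z at or under -2)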
The deposit covers about 17,000 reagents; this is a part drawn at random. 788 of all reagents (4.7%) count as active. 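Calls rest on z-score classes alone; an extra cut-off of viability at most 70% of control was not applied to them.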 A number with no mark means an inactive call. A reagent listed more than once was tested more than once; the source does not tell the runs apart. No sequences are given here.

no.	target	combined z-score class	viability z-score with doxorubicin	viability z-score without drug	z-score of drug to no-drug ratio	doxorubicin viability vs non-targeting
1	Six6 (sine oculis-related homeobox 6)	no change with or without drug	1.12	1.85	0	1.04
2	Pcdha1 (protocadherin alpha 1)	no change with or without drug	-1.57	-0.84	-1.01	0.8
3	Kcnk10 (potassium channel, subfamily K, member 10)	low cell count with doxorubicin only (active)	-3.26	0	-3.37	0.65
4	Akr1d1 (aldo-keto reductase family 1, member D1)	no change with or without drug	-0.67	-0.51	-0.22	0.88
5	Mpv17l2 (MPV17 mitochondrial membrane protein-like 2)	no change with or without drug	0.67	-0.51	1.24	1
6	Pcdhga8 (protocadherin gamma subfamily A, 8)	low cell count with doxorubicin only (active)	-2.14	-0.51	-1.8	0.75
7	Tfam (transcription factor A, mitochondrial)	no change with or without drug	-1.01	-1.52	0.11	0.85
8	Yrdc (yrdC domain containing (E.coli))	no change with or without drug	0	-1.69	1.46	0.94
9	Macroh2a1 (macroH2A.1 histone)	no change with or without drug	0.9	1.35	0.11	1.02
10	Cep112 (centrosomal protein 112)	no change with or without drug	0.9	-0.51	1.46	1.02
11	Sytl2 (synaptotagmin-like 2)	no change with or without drug	0.67	0.51	0.45	1
12	Slc23a2	no change with or without drug	-1.57	-1.18	-0.79	0.8
13	Cnnm3 (cyclin M3)	no change with or without drug	-1.12	-1.35	-0.11	0.84
14	Tas2r117 (taste receptor, type 2, member 117)	no change with or without drug	1.57	1.18	0.9	1.08
15	Mrpl18 (mitochondrial ribosomal protein L18)	low cell count without drug only	-0.11	-2.53	2.02	0.93
16	Srsf9 (serine and arginine-rich splicing factor 9)	no change with or without drug	0.34	0.17	0.34	0.97
17	Marcksl1 (MARCKS-like 1)	no change with or without drug	-1.57	0.84	-2.02	0.8
18	Ggct (gamma-glutamyl cyclotransferase)	no change with or without drug	1.35	1.85	0.22	1.06
19	Srpk2 (serine/arginine-rich protein specific kinase 2)	no change with or without drug	1.12	0.17	1.12	1.04
20	Ankrd52 (ankyrin repeat domain 52)	high cell count without drug only	1.12	2.02	-0.11	1.04
21	Bhlhe23 (basic helix-loop-helix family, member e23)	no change with or without drug	0.34	-0.17	0.56	0.97
22	Aph1c (aph1 homolog C, gamma secretase subunit)	no change with or without drug	-1.8	0.34	-2.02	0.78
23	Tmco1 (transmembrane and coiled-coil domains 1)	no change with or without drug	-0.34	1.52	-1.12	0.91
24	Pik3r4 (phosphoinositide-3-kinase regulatory subunit 4)	no change with or without drug	0	0.17	0	0.94
25	Psmb5 (proteasome (prosome, macropain) subunit, beta type 5)	low cell count with and without drug	-6.52	-7.25	-3.26	0.36
26	Tnp1 (transition protein 1)	no change with or without drug	-1.8	-0.51	-1.46	0.78
27	Nkg7 (natural killer cell group 7 sequence)	no change with or without drug	0.67	-0.84	1.46	1
28	Mthfd2	no change with or without drug	0.34	0.67	0	0.97
29	Nsun3 (NOL1/NOP2/Sun domain family member 3)	no change with or without drug	-0.45	0.51	-0.67	0.9
30	Cyp2e1 (cytochrome P450, family 2, subfamily e, polypeptide 1)	no change with or without drug	0.56	0.84	0.11	0.99

Entries listed so far with an active call, once more:
target	combined z-score class	viability z-score with doxorubicin	viability z-score without drug	z-score of drug to no-drug ratio	doxorubicin viability vs non-targeting
Kcnk10 (potassium channel, subfamily K, member 10)	low cell count with doxorubicin only (active)	-3.26	0	-3.37	0.65
Pcdhga8 (protocadherin gamma subfamily A, 8)	low cell count with doxorubicin only (active)	-2.14	-0.51	-1.8	0.75

Further entries follow:
no.	target	combined z-score class	viability z-score with doxorubicin	viability z-score without drug	z-score of drug to no-drug ratio	doxorubicin viability vs non-targeting
31	Zfp874a (zinc finger protein 874a)	no change with or without drug	-0.22	0.51	-0.45	0.92
32	Slc25a15	no change with or without drug	0.45	-0.51	1.01	0.98
33	Hcfc1r1 (host cell factor C1 regulator 1 (XPO1-dependent))	no change with or without drug	-0.22	0.17	-0.22	0.92
34	Nop53 (NOP53 ribosome biogenesis factor)	low cell count without drug only	-1.35	-2.87	0.79	0.82
35	Plg (plasminogen)	no change with or without drug	0.34	-0.17	0.56	0.97
36	Tg (thyroglobulin)	no change with or without drug	-0.9	-1.18	0	0.86
37	Spp2 (secreted phosphoprotein 2)	no change with or without drug	1.91	0.51	1.69	1.11
38	Csf1r (colony stimulating factor 1 receptor)	high cell count without drug only	0.11	3.2	-1.69	0.95
39	Obox5 (oocyte specific homeobox 5)	no change with or without drug	-1.12	0.17	-1.12	0.84
40	Ddx51 (DEAD box helicase 51)	low cell count without drug only	-1.8	-3.04	0.34	0.78
41	Exosc5 (exosome component 5)	no change with or without drug	0.45	0.34	0.34	0.98
42	Adgb (androglobin)	no change with or without drug	0.45	0.67	0.11	0.98
43	Kitl (kit ligand)	no change with or without drug	-0.22	-0.84	0.45	0.92
44	Cmpk1 (cytidine/uridine monophosphate kinase 1)	no change with or without drug	-1.35	-0.84	-0.79	0.82
45	Cmpk1 (cytidine/uridine monophosphate kinase 1)	no change with or without drug	1.24	0.34	1.12	1.05
46	Or5p6 (olfactory receptor family 5 subfamily P member 6)	no change with or without drug	0.22	-0.17	0.45	0.96
47	Pcp4 (Purkinje cell protein 4)	no change with or without drug	-1.35	0.51	-1.57	0.82
48	Nol3 (nucleolar protein 3 (apoptosis repressor with CARD domain))	no change with or without drug	0.9	1.18	0.22	1.02
49	Cd28 (CD28 antigen)	no change with or without drug	0.9	-0.17	1.24	1.02
50	Mplkip (M-phase specific PLK1 intereacting protein)	no change with or without drug	1.01	1.18	0.34	1.03
